Assay results published in the supplement of paper PMC8728848.
The other results are listed elsewhere or left out.

Legend:
Assay in all cases: glycan array binding signal (z-score within array); higher = stronger binding
Settings in all cases: glycan notation: IUPAC condensed, linker removed
[1] = molecular target: Gal(b1-4)GlcNAc(b1-2)[Gal(b1-4)GlcNAc(b1-4)]Man(a1-3)[Gal(b1-4)GlcNAc(b1-2)[Gal(b1-4)GlcNAc(b1-6)]Man(a1-6)]Man(b1-4)GlcNAc(b1-4)GlcNAc
Outline: (§1)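 From the Consortium for Functional Glycomics database, 3228 arrays were curated, keeping only those whose protein sequence was available. Binding is given as a within-array Z-score averaged across arrays sharing a protein sequence and across linkers. Negative Z-scores can be read as non-binding.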

[2] = molecular target: Gal(b1-4)GlcNAc(b1-2)[Gal(b1-4)GlcNAc(b1-4)]Man(a1-3)[GlcNAc(b1-4)][Gal(b1-4)GlcNAc(b1-2)Man(a1-6)]Man(b1-4)GlcNAc(b1-4)GlcNAc
Outline: as §1

[3] = molecular target: Gal(b1-4)GlcNAc(b1-2)[Gal(b1-4)GlcNAc(b1-6)]Man(a1-6)[GlcNAc(b1-4)][Gal(b1-4)GlcNAc(b1-2)Man(a1-3)]Man(b1-4)GlcNAc(b1-4)GlcNAc
Outline: as §1

[4] = molecular target: Gal(b1-4)GlcNAc(b1-3)Gal(b1-3)GlcNAc
Outline: as §1

[5] = molecular target: Gal(b1-4)GlcNAc(b1-3)Gal(b1-4)Glc
Outline: as §1

[6] = molecular target: Gal(b1-4)GlcNAc(b1-3)Gal(b1-4)GlcNAc
Outline: as §1

[7] = molecular target: Gal(b1-4)GlcNAc(b1-3)Gal(b1-4)GlcNAc(b1-3)Gal(b1-4)GlcNAc
Outline: as §1

[8] = molecular target: Gal(b1-4)GlcNAc(b1-3)Gal(b1-4)[Fuc(a1-3)GlcNAc(b1-6)]Gal(b1-4)Glc
Outline: as §1

[9] = molecular target: Gal(b1-4)GlcNAc(b1-3)Gal(b1-4)[Fuc(a1-3)]GlcNAc(b1-3)Gal(b1-4)[Fuc(a1-3)]GlcNAc
Outline: as §1

[10] = molecular target: Gal(b1-4)GlcNAc(b1-3)GalNAc
Outline: as §1

[11] = molecular target: Gal(b1-4)GlcNAc(b1-3)[Gal(b1-4)GlcNAc(b1-6)]Gal(b1-4)GlcNAc
Outline: as §1

[12] = molecular target: Gal(b1-4)GlcNAc(b1-3)[Gal(b1-4)GlcNAc(b1-6)]GalNAc
Outline: as §1

[13] = molecular target: Gal(b1-4)GlcNAc(b1-3)[GlcNAc(b1-6)]Gal(b1-4)GlcNAc
Outline: as §1

[14] = molecular target: Gal(b1-4)GlcNAc(b1-6)Gal(b1-4)GlcNAc
Outline: as §1

[15] = molecular target: Gal(b1-4)GlcNAc(b1-6)GalNAc
Outline: as §1

[16] = molecular target: Gal(b1-4)GlcNAc(b1-6)[Gal(b1-3)]GalNAc
Outline: as §1

Gal(b1-6)Gal = molecular target: Gal(b1-6)Gal
Outline: as §1

Gal3S(b1-3)GalNAc = molecular target: Gal3S(b1-3)GalNAc
Outline: as §1

Gal3S(b1-3)GlcNAc = molecular target: Gal3S(b1-3)GlcNAc
Outline: as §1

[17] = molecular target: Gal3S(b1-3)[Fuc(a1-4)]GlcNAc
Outline: as §1

Gal3S(b1-4)Glc = molecular target: Gal3S(b1-4)Glc
Outline: as §1

Gal3S(b1-4)Glc6S = molecular target: Gal3S(b1-4)Glc6S
Outline: as §1

Gal3S(b1-4)GlcNAc = molecular target: Gal3S(b1-4)GlcNAc
Outline: as §1

Gal3S(b1-4)GlcNAc6S = molecular target: Gal3S(b1-4)GlcNAc6S
Outline: as §1

[18] = molecular target: Gal3S(b1-4)[Fuc(a1-3)]Glc
Outline: as §1

[19] = molecular target: Gal3S(b1-4)[Fuc(a1-3)]Glc6S
Outline: as §1

Gal3S4S(b1-4)GlcNAc = molecular target: Gal3S4S(b1-4)GlcNAc
Outline: as §1

Gal3S6S(b1-4)GlcNAc = molecular target: Gal3S6S(b1-4)GlcNAc
Outline: as §1

Gal3S6S(b1-4)GlcNAc6S = molecular target: Gal3S6S(b1-4)GlcNAc6S
Outline: as §1

Gal4S(b1-4)GlcNAc = molecular target: Gal4S(b1-4)GlcNAc
Outline: as §1

Gal4S6S(b1-4)GlcNAc = molecular target: Gal4S6S(b1-4)GlcNAc
Outline: as §1

Gal6S(b1-3)GlcNAc = molecular target: Gal6S(b1-3)GlcNAc
Outline: as §1

Gal6S(b1-3)GlcNAc6S = molecular target: Gal6S(b1-3)GlcNAc6S
Outline: as §1

Gal6S(b1-4)Glc = molecular target: Gal6S(b1-4)Glc
Outline: as §1

Gal6S(b1-4)Glc6S = molecular target: Gal6S(b1-4)Glc6S
Outline: as §1

Gal6S(b1-4)GlcNAc = molecular target: Gal6S(b1-4)GlcNAc
Outline: as §1

Gal6S(b1-4)GlcNAc6S = molecular target: Gal6S(b1-4)GlcNAc6S
Outline: as §1

GalNAc(a1-3)Gal = molecular target: GalNAc(a1-3)Gal
Outline: as §1

GalNAc(a1-3)GalNAc = molecular target: GalNAc(a1-3)GalNAc
Outline: as §1

[20] = molecular target: GalNAc(a1-3)GalNAc(a1-3)Gal(a1-4)Gal(b1-4)GlcNAc
Outline: as §1

[21] = molecular target: GalNAc(a1-3)GalNAc(b1-3)Gal(a1-4)Gal(b1-4)Glc
Outline: as §1

GalNAc(b1-3)Gal = molecular target: GalNAc(b1-3)Gal
Outline: as §1

[22] = molecular target: GalNAc(b1-3)Gal(a1-4)Gal(b1-4)GlcNAc
Outline: as §1

[23] = molecular target: GalNAc(b1-3)Gal(a1-4)Gal(b1-4)GlcNAc(b1-3)Gal(b1-4)Glc
Outline: as §1

[24] = molecular target: GalNAc(b1-3)Gal(a1-6)Gal(b1-4)Glc
Outline: as §1

B1: rPitB (Streptococcus pneumoniae), A0A0I7U739 (protein)
chain: MSEIEIINAKKIYHDVPVIENLNITIPKGSLFTLLGASGCGKTTLLRMIAGFNSIKDGEFYFDDTKINNMEPSKRNIGLVFQNYAIFPHLTVRDNVAFGLMQKKVPKEELIQQTNKYLELMQIAQYAD
[1]
  glycan array binding signal (z-score): 0.865
[2]
  glycan array binding signal (z-score): 1.64
[3]
  glycan array binding signal (z-score): 0.115
[4]
  glycan array binding signal (z-score): 0.286
[5]
  glycan array binding signal (z-score): -0.564
[6]
  glycan array binding signal (z-score): -0.055
[7]
  glycan array binding signal (z-score): -0.74
[8]
  glycan array binding signal (z-score): 0.262
[9]
  glycan array binding signal (z-score): -0.492
[10]
  glycan array binding signal (z-score): 0.086
[11]
  glycan array binding signal (z-score): -0.241
[12]
  glycan array binding signal (z-score): 0.445
[13]
  glycan array binding signal (z-score): -0.061
[14]
  glycan array binding signal (z-score): -0.596
[15]
  glycan array binding signal (z-score): 0.741
[16]
  glycan array binding signal (z-score): 0.088
Gal(b1-6)Gal
  glycan array binding signal (z-score): -0.459
Gal3S(b1-3)GalNAc
  glycan array binding signal (z-score): -0.677
Gal3S(b1-3)GlcNAc
  glycan array binding signal (z-score): -0.127
[17]
  glycan array binding signal (z-score): -0.575
Gal3S(b1-4)Glc
  glycan array binding signal (z-score): -0.401
Gal3S(b1-4)Glc6S
  glycan array binding signal (z-score): 0.112
Gal3S(b1-4)GlcNAc
  glycan array binding signal (z-score): 0.147
Gal3S(b1-4)GlcNAc6S
  glycan array binding signal (z-score): 0.471
[18]
  glycan array binding signal (z-score): -0.427
[19]
  glycan array binding signal (z-score): 1.25
Gal3S4S(b1-4)GlcNAc
  glycan array binding signal (z-score): -0.201
Gal3S6S(b1-4)GlcNAc
  glycan array binding signal (z-score): 0.627
Gal3S6S(b1-4)GlcNAc6S
  glycan array binding signal (z-score): -0.233
Gal4S(b1-4)GlcNAc
  glycan array binding signal (z-score): -0.932
Gal4S6S(b1-4)GlcNAc
  glycan array binding signal (z-score): -0.597
Gal6S(b1-3)GlcNAc
  glycan array binding signal (z-score): -0.86
Gal6S(b1-3)GlcNAc6S
  glycan array binding signal (z-score): 0.052
Gal6S(b1-4)Glc
  glycan array binding signal (z-score): -0.374
Gal6S(b1-4)Glc6S
  glycan array binding signal (z-score): 0.951
Gal6S(b1-4)GlcNAc
  glycan array binding signal (z-score): 0.313
Gal6S(b1-4)GlcNAc6S
  glycan array binding signal (z-score): 0.24
GalNAc(a1-3)Gal
  glycan array binding signal (z-score): -0.582
GalNAc(a1-3)GalNAc
  glycan array binding signal (z-score): -0.089
[20]
  glycan array binding signal (z-score): -0.121
[21]
  glycan array binding signal (z-score): -0.152
GalNAc(b1-3)Gal
  glycan array binding signal (z-score): -0.887
[22]
  glycan array binding signal (z-score): 0.195
[23]
  glycan array binding signal (z-score): -0.616
[24]
  glycan array binding signal (z-score): -0.225
